# Results are given in words; binding and its absence hold for the method and conditions named. For some assays here: Binding seen in cells or lysates may run through a third protein. Some binding calls cover weakened binding; strength is not graded here. Sequences can lack the tags named with a protein.
# T1: GFP-Snx4 (S. cerevisiae) (UniProt P47057)
# T1 sequence: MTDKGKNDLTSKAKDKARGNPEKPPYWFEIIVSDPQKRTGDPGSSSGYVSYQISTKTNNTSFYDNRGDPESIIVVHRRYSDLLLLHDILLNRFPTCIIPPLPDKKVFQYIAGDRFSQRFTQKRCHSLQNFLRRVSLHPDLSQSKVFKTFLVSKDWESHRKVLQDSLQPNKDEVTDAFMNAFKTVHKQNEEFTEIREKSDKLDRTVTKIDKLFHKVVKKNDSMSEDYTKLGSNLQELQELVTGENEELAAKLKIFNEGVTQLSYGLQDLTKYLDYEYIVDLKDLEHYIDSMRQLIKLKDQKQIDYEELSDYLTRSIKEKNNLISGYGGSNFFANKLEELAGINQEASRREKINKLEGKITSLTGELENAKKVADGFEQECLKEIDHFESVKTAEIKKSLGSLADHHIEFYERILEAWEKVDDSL
# T2: Gal4-BD-Snx4 (S. cerevisiae) (UniProt P47057)
# T2 sequence: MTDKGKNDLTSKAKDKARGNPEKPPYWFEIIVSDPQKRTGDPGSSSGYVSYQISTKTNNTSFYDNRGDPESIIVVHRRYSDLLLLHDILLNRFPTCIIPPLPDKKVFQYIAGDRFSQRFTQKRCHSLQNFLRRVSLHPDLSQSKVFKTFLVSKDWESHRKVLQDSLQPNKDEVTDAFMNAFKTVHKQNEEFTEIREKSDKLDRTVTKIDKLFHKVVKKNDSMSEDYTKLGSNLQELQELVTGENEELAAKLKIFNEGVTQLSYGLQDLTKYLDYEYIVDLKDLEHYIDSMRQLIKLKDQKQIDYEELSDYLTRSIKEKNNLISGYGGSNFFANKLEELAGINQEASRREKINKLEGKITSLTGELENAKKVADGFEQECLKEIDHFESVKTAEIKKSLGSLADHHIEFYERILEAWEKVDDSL
# Assays:
# GFP-Snx4 (S. cerevisiae) = target: T1, GFP-Snx4 (S. cerevisiae); test: co-IP
# [1] = target: T2, Gal4-BD-Snx4 (S. cerevisiae); test: two-hybrid
Binder,binding (GFP-Snx4 (S. cerevisiae)),binding [1]
"Med13-3xHA (protein, UniProt P38931 1-1420) MSSDASTYRLEDVLSSFYRVEKIKKINYHQYISKAQNDQWSIQMEFMLRKQDPKTLVALLSRDLWCFSINDDPVPTPPAIEHKPVSPDKIGTFTADYSKPNLPPHYALFLKALRRKIYINLALGSHNKLIQFGNACISLSGVPNYLVQLEPHLFVNGDLTVSLCAKNMGLVPMKEENLEESFLSKHALYLAPSGIRMHLAPASKQGYLITPPKHTELLLTTLSVSHGINLQNKKNLKWVAVVPDLGHLNGHTPTIASYLTPLLEAKKLVWPLHLIFAQPVADIENSTSGDPSEFHCLQDALDAIDDFIQLKQTAAYRTPGSSGVLSSNIAGTNPLSSDGAYTEQFQHYKNNSISSQPASYHSVQETNKISPKDFSPNFTGIDKLMLSPSDQFAPAFLNTPNNNINENELFNDRKQTTVSNDLENSPLKTELEANGRSLEKVNNSVSKTGSVDTLHNKEGTLEQREQNENLPSDKSDSMVDKELFGEDEDEDLFGDSNKSNSTNESNKSISDEITEDMFEMSDEEENNNNKSINKNNKEMHTDLGKDIPFFPSSEKPNIRTMSGTTKRLNGKRKYLDIPIDEMTLPTSPLYMDPGAPLPVETPRDRRKSVFAPLNFNPIIENNVDNKYKSGGKFSFSPLQKEEALNFDISMADLSSSEEEEDEEENGSSDEDLKSLNVRDDMKPSDNISTNTNIHEPQYINYSSIPSLQDSIIKQENFNSVNDANITSNKEGFNSIWKIPQNDIPQTESPLKTVDSSIQPIESNIKMTLEDNNVTSNPSEFTPNMVNSEISNLPKDKSGIPEFTPADPNLSFESSSSLPFLLRHMPLASIPDIFITPTPVVTISEKEQDILDLIAEQVVTDYNILGNLGIPKIAYRGVKDCQEGLITTTMLQLFSTFDRLNGNDTISKFYNMKQPYVFVKKHHELIKVKHDSQPFIKFLNFRPPNGIKNFKSLLLSSSFKEDCLSFAPTLSQTYINQELGFCELLKLTNEDPPGLMYLKAFDKNKLLLLAAQIVSYCSNNKNSIKNVPPILIILPLDNATLTELVDKANIFQVIKNEVCAKMPNIELYLKVIPMDFIRNVLVTVDQYVNVAISIYNMLPPKSVKFTHIAHTLPEKVNFRTMQQQQMQQQQQQQQQQQNNSTGSSSIIYYDSYIHLAYSRSVDKEWVFAALSDSYGQGSMTKTWYVGNSRGKFDDACNQIWNIALNLASKKFGKICLILTRLNGILPDDELMNWRRLSGRNIHLAVVCVDDNSKISFIDEDKLYPSFKPIYKDTRFGGRMDMTRLYDYEIRDIDQDIHGIVFQHPFPLAHSQHRCAIRSGALIKFKKCDGDTVWDKFAVNLLNCPHSDSTQLLETILEEFRNLAALNVWYGLSDGEDGHIPWHILAVKKMMNTLVHTRVKIANTSAATVHTATSSSIILSDK",binds,
"Gal4-AD-Med13^907-1163 (domain or fragment, UniProt P38931 907-1163) KFYNMKQPYVFVKKHHELIKVKHDSQPFIKFLNFRPPNGIKNFKSLLLSSSFKEDCLSFAPTLSQTYINQELGFCELLKLTNEDPPGLMYLKAFDKNKLLLLAAQIVSYCSNNKNSIKNVPPILIILPLDNATLTELVDKANIFQVIKNEVCAKMPNIELYLKVIPMDFIRNVLVTVDQYVNVAISIYNMLPPKSVKFTHIAHTLPEKVNFRTMQQQQMQQQQQQQQQQQNNSTGSSSIIYYDSYIHLAYSRSVDKE",,binds

# — publication doi:10.1101/2020.05.27.118315
